We go through 2 molecules from article PMC6377711.

The chains behind the UniProt entries cited, without tags or fusion partners.
UniProt Q676U5: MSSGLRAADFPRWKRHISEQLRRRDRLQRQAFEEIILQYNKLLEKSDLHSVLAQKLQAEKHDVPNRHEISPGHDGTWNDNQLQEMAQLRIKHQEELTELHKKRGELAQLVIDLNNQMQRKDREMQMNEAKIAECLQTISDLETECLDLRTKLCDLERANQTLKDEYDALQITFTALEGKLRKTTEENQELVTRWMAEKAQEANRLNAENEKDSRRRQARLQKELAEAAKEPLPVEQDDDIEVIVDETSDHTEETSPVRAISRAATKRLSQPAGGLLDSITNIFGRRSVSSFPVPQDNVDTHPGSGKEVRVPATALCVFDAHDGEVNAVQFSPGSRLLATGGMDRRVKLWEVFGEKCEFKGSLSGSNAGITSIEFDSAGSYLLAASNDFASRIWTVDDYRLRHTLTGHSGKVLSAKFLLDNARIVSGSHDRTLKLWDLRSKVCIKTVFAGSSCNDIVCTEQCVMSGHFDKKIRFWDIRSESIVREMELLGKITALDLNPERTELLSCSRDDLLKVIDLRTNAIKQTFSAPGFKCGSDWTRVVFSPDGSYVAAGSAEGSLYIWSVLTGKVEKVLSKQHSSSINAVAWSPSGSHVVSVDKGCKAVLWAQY

These are yes or no findings as the source states them, for the method shown. In cells and extracts the contact can be indirect. Binding can be weak; no strength is given.

Assay [1] has as its target Flag-Gigaxonin ΔC deletion construct (BTB) (human) (UniProt Q9H2C0). Briefly: co-IP; COS-7 cells transiently transfected and treated with MG132; anti-Flag or anti-Cherry antibodies on Dynabeads Protein G incubated with 500 µg of lysate protein for 2 h at room temperature in PBS tween 0.02%; immunoblot with Cherry/Flag antibodies; normal mouse IgG as negative control. In general terms: In western blotting, separated proteins are transferred to a membrane and probed.

Assay [2] addresses Flag-ATG16L1-ΔN (mouse deletion construct) (mouse). Described as above.

With “Cherry-ATG16L1 (human) (from UniProt Q676U5 1-607)”, in assay [1], the binding entry is listed as “binds”.

B1: Cherry-Gigaxonin (human, full-length) (protein, UniProt Q9H2C0 1-597)
chain: MAEGSAVSDPQHAARLLRALSSFREESRFCDAHLVLDGEEIPVQKNILAAASPYIRTKLNYNPPKDDGSTYKIELEGISVMVMREILDYIFSGQIRLNEDTIQDVVQAADLLLLTDLKTLCCEFLEGCIAAENCIGIRDFALHYCLHHVHYLATEYLETHFRDVSSTEEFLELSPQKLKEVISLEKLNVGNERYVFEAVIRWIAHDTEIRKVHMKDVMSALWVSGLDSSYLREQMLNEPLVREIVKECSNIPLSQPQQGEAMLANFKPRGYSECIVTVGGEERVSRKPTAAMRCMCPLYDPNRQLWIELAPLSMPRINHGVLSAEGFLFVFGGQDENKQTLSSGEKYDPDANTWTALPPMNEARHNFGIVEIDGMLYILGGEDGEKELISMECYDIYSKTWTKQPDLTMVRKIGCYAAMKKKIYAMGGGSYGKLFESVECYDPRTQQWTAICPLKERRFGAVACGVAMELYVFGGVRSREDAQGSEMVTCKSEFYHDEFKRWIYLNDQNLCIPASSSFVYGAVPIGASIYVIGDLDTGTNYDYVREFKRSTGTWHHTKPLLPSDLRRTGCAALRIANCKLFRLQLQQGLFRIRVHSP
Consider B1, for which, in assay [2], the binding entry is reported as “binds”.
